Results deposited as PubChem BioAssay AID1259254 (NCATS, 2017)
The whole screen tested about 59,000 reagents; below is a random part of them. About 1,550 of them (2.6%) were called active. 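G2 share is only a proxy for re-replication; each gene was hit by three separate siRNAs, and active genes were retested.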 The raw values are shown without normalisation. The numbers tell different reagents against one gene apart. Not stated in the record: the amount of reagent.

Assay: 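Gene knock-downs that lead to re-replication, shown by excess G2 DNA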 (primary screen)
Cells: human HCT116 colorectal cancer cells
Knock-down reagent: single siRNA against human genes
Time to read-out: 3 days
Read-out: 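Nuclei stained with Hoechst and imaged; cell-cycle phase assigned by DNA content; G2 share scaled per plate, non-targeting siRNA 0%, GMNN siRNA 100%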
Direction: G2 robust z-score and G2 cells, % of GMNN control: higher = more G2 cells, more excess DNA replication; raw share of cells in G2: higher = larger share of cells with G2 DNA content
Call rule: 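Active siRNAs have a G2 robust z of 5 or more median absolute deviations over the median, which in these data means about 38% or higher of GMNN control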

Target gene | reagent no. | G2 robust z-score | G2 cells, % of GMNN control | raw share of cells in G2 (%) | outcome
FAM89A | 1 | 0.654 | 7.57 | 7.88 | inactive
FAM89A | 2 | -1.21 | -5.58 | 1.86 | inactive
FAM89A | 3 | -0.488 | -0.466 | 3.2 | inactive
SLC6A17 | 1 | 1.5 | 13.5 | 11.7 | inactive
SLC6A17 | 2 | -0.525 | -0.728 | 4.68 | inactive
SLC6A17 | 3 | -0.93 | -3.58 | 2.98 | inactive
VIPAS39 | 1 | -0.173 | 1.75 | 5.34 | inactive
VIPAS39 | 2 | -0.161 | 1.83 | 5.43 | inactive
VIPAS39 | 3 | -0.205 | 1.52 | 3.1 | inactive
DYNLT2 | 1 | -0.606 | -1.29 | 4.56 | inactive
DYNLT2 | 2 | -0.627 | -1.45 | 3.32 | inactive
DYNLT2 | 3 | -0.221 | 1.41 | 3.85 | inactive
SULT6B1 | 1 | -0.261 | 1.13 | 4.7 | inactive
SULT6B1 | 2 | -0.239 | 1.29 | 5.46 | inactive
SULT6B1 | 3 | 0.289 | 5 | 8.06 | inactive
RBFOX2 | 1 | -0.225 | 1.39 | 6.93 | inactive
RBFOX2 | 2 | -0.0783 | 2.42 | 4.96 | inactive
RBFOX2 | 3 | -0.46 | -0.267 | 3.77 | inactive
NARS1 | 1 | -0.15 | 1.91 | 3.82 | inactive
NARS1 | 2 | 4.54 | 34.9 | 19.3 | inactive
NARS1 | 3 | 0.358 | 5.49 | 7.48 | inactive
FCRLB | 1 | 1.42 | 12.9 | 11.7 | inactive
FCRLB | 2 | -0.805 | -2.7 | 3.81 | inactive
FCRLB | 3 | -0.631 | -1.47 | 3.92 | inactive
PCCB | 1 | 4 | 31.1 | 17 | inactive
PCCB | 2 | -0.742 | -2.25 | 3.84 | inactive
PCCB | 3 | -0.549 | -0.895 | 2.89 | inactive
MTPN | 1 | 0.797 | 8.58 | 5.69 | inactive
MTPN | 2 | 0.0663 | 3.43 | 5.47 | inactive
MTPN | 3 | 0.212 | 4.46 | 4.52 | inactive
CNNM2 | 1 | -0.694 | -1.92 | 2.92 | inactive
CNNM2 | 2 | 5.48 | 41.5 | 21.7 | active
CNNM2 | 3 | -0.5 | -0.548 | 3.01 | inactive
GSC2 | 1 | 0.709 | 7.96 | 8.13 | inactive
GSC2 | 2 | -0.775 | -2.48 | 2.77 | inactive
GSC2 | 3 | 5.17 | 39.3 | 20.2 | active

The list goes on (5 carried over from the part before).
Target gene | reagent no. | G2 robust z-score | G2 cells, % of GMNN control | raw share of cells in G2 (%) | outcome
CNNM2 | 2 | 5.48 | 41.5 | 21.7 | active
CNNM2 | 3 | -0.5 | -0.548 | 3.01 | inactive
GSC2 | 1 | 0.709 | 7.96 | 8.13 | inactive
GSC2 | 2 | -0.775 | -2.48 | 2.77 | inactive
GSC2 | 3 | 5.17 | 39.3 | 20.2 | active
CATIP | 1 | -0.412 | 0.0666 | 3.8 | inactive
CATIP | 2 | 0.702 | 7.9 | 6.84 | inactive
CATIP | 3 | -0.613 | -1.35 | 4.06 | inactive
PID1 | 1 | 4.37 | 33.7 | 17.5 | inactive
PID1 | 2 | -1.19 | -5.4 | 1.9 | inactive
PID1 | 3 | -0.805 | -2.7 | 2.28 | inactive
MAB21L4 | 1 | -0.126 | 2.08 | 2.95 | inactive
MAB21L4 | 2 | 1.56 | 14 | 10.2 | inactive
MAB21L4 | 3 | -0.454 | -0.228 | 4.2 | inactive
PNLIP | 1 | -0.0344 | 2.73 | 5.92 | inactive
PNLIP | 2 | 0.228 | 4.57 | 6.42 | inactive
PNLIP | 3 | -0.344 | 0.548 | 4.33 | inactive
LRRC23 | 1 | 0.843 | 8.9 | 9.35 | inactive
LRRC23 | 2 | -0.275 | 1.04 | 4.38 | inactive
LRRC23 | 3 | -0.214 | 1.46 | 3.94 | inactive
AP2M1 | 1 | 1.23 | 11.6 | 10.8 | inactive
AP2M1 | 2 | -0.366 | 0.39 | 4.23 | inactive
AP2M1 | 3 | 0.516 | 6.6 | 6.11 | inactive
SCX | 1 | 0.104 | 3.7 | 4.82 | inactive
SCX | 2 | -0.699 | -1.95 | 2.46 | inactive
SCX | 3 | -0.649 | -1.6 | 3.01 | inactive
FKBP1B | 1 | 3.5 | 27.6 | 15.3 | inactive
FKBP1B | 2 | 0.112 | 3.76 | 5 | inactive
FKBP1B | 3 | 0.336 | 5.33 | 7.29 | inactive
BNC2 | 1 | -0.285 | 0.965 | 6.39 | inactive
BNC2 | 2 | -0.788 | -2.58 | 3.29 | inactive
BNC2 | 3 | -0.147 | 1.94 | 4.54 | inactive
IGSF6 | 1 | 0.12 | 3.81 | 7.05 | inactive
IGSF6 | 2 | 0.0996 | 3.67 | 5.47 | inactive
IGSF6 | 3 | 0 | 2.97 | 4.49 | inactive
AHDC1 | 1 | -0.444 | -0.159 | 3.79 | inactive
AHDC1 | 2 | 0.17 | 4.16 | 6.12 | inactive
AHDC1 | 3 | 0.789 | 8.52 | 5.94 | inactive
